Measurements: the supplement of paper PMC10689618
Where a name gives a salt, the structure may show the parent alone. Some of the results follow. Repeats are few or missing, and single values can be far off.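 Labelled rat cortical synaptosomes were engulfed by primary human fetal astrocytes. Engulfment equaled a red/green ratio, corrected for calcein live-cell signal and normalized to the plate median. Compounds were toxic when calcein dropped over 30%, and reduced phagocytosis when below 70% of the median above 5 µM.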

How the values were obtained:
Settings in all cases: 24 h
Human fetal astrocytes [1] = experiment: loss of total cells relative to no-compound high-control median (toxicity); higher = more toxic (fewer cells)
Human fetal astrocytes [2] = experiment: as above; remark: listed apart in the source
Human fetal astrocytes [3] = experiment: synaptosome phagocytosis (pHrodo/calcein intensity ratio) relative to plate median of data wells; higher = more phagocytosis
Human fetal astrocytes [4] = experiment: as above; remark: listed apart in the source

SMILES | loss of total cells (Human fetal astrocytes [1]; 1.39 µM) [%] | loss of total cells (Human fetal astrocytes [1]; 2.78 µM) [%] | loss of total cells (Human fetal astrocytes [1]; 5.56 µM) [%] | loss of total cells (Human fetal astrocytes [1]; 11.11 µM) [%] | loss of total cells (Human fetal astrocytes [1]; 22.22 µM) [%] | loss of total cells (Human fetal astrocytes [2]; 1.39 µM) [%] | loss of total cells (Human fetal astrocytes [2]; 2.78 µM) [%] | loss of total cells (Human fetal astrocytes [2]; 5.56 µM) [%] | loss of total cells (Human fetal astrocytes [2]; 11.11 µM) [%] | loss of total cells (Human fetal astrocytes [2]; 22.22 µM) [%] | synaptosome phagocytosis (Human fetal astrocytes [3]; 1.39 µM) [%] | synaptosome phagocytosis (Human fetal astrocytes [3]; 2.78 µM) [%] | synaptosome phagocytosis (Human fetal astrocytes [3]; 5.56 µM) [%] | synaptosome phagocytosis (Human fetal astrocytes [3]; 11.11 µM) [%] | synaptosome phagocytosis (Human fetal astrocytes [3]; 22.22 µM) [%] | synaptosome phagocytosis (Human fetal astrocytes [4]; 1.39 µM) [%] | synaptosome phagocytosis (Human fetal astrocytes [4]; 2.78 µM) [%] | synaptosome phagocytosis (Human fetal astrocytes [4]; 5.56 µM) [%] | synaptosome phagocytosis (Human fetal astrocytes [4]; 11.11 µM) [%] | synaptosome phagocytosis (Human fetal astrocytes [4]; 22.22 µM) [%]
C[C@H](CS)C(=O)N1CCC[C@H]1C(=O)O [Captopril] | -1.5 | -3.6 | -23.5 | -8.5 | -3.4 | 20.5 | -5.8 | -8.4 | 18.2 | 14.9 | 109 | 108 | 102 | 106 | 120 | 158 | 113 | 106 | 99.4 | 116
Cn1c(=O)c2c(ncn2C)n(C)c1=O [Caffeine] | -32.7 | -23.8 | -19.8 | 9.4 | 5.6 | -29.9 | -15.5 | -6.9 | -10.9 | -6.8 | 112 | 101 | 86.3 | 154 | 106 | 128 | 76.1 | 80 | 111 | 106
O=C(CCCN1CCC(O)(c2ccc(Cl)cc2)CC1)c1ccc(F)cc1 [Haloperidol] | 7.9 | -10.3 | -9.1 | -3.1 | -2.4 | 1.5 | -14.6 | -11.8 | 14.7 | 5.8 | 95.9 | 100 | 79.9 | 101 | 80.9 | 120 | 76.2 | 98.3 | 86.4 | 106
COc1cc2nc(N3CCN(C(=O)c4ccco4)CC3)nc(N)c2cc1OC [Prazosin hydrochloride] | -0.3 | -6.3 | -1.7 | 9.6 | -0.8 | 3.9 | -15.3 | -9.8 | -11.8 | 27.7 | 98.8 | 98.8 | 60.4 | 106 | 89.4 | 120 | 92.6 | 119 | 123 | 112
CC[C@@H]1C(=O)OC[C@@H]1Cc1cncn1C [(+)-Pilocarpine hydrochloride] | -8.1 | -2.3 | -3.3 | 3.8 | 11.2 | -2.7 | -15.3 | -5.6 | -8.4 | 19.8 | 109 | 120 | 99.9 | 110 | 106 | 88.6 | 74.9 | 122 | 119 | 77.1
C#CCN(C)CCCOc1ccc(Cl)cc1Cl [Clorgyline hydrochloride] | -26.1 | -5.9 | 9.9 | 11.4 | 26.2 | 3.2 | 3.2 | 19.6 | 1.3 | 6.1 | 98.4 | 128 | 120 | 112 | 130 | 93.5 | 94 | 72.5 | 80.4 | 99.4
COc1cc2nc(N3CCN(C(=O)C4COc5ccccc5O4)CC3)nc(N)c2cc1OC (stereo not given) [Doxazosin mesylate] | 4.6 | 6 | 4.9 | -4 | 9.6 | -35.9 | 7.3 | -17.6 | -8.4 | -6.3 | 94 | 107 | 88.6 | 88.7 | 86.3 | 92.3 | 62.8 | 82.1 | 77.3 | 90.5
CCN(CC)CCNC(=O)c1cc(S(C)(=O)=O)ccc1OC [Tiapride hydrochloride] | -15.8 | -9.9 | -13.5 | -20.3 | 15.6 | -21.8 | -27 | -9.3 | 12.8 | -0.9 | 102 | 117 | 121 | 108 | 130 | 94.6 | 88.8 | 122 | 122 | 108
C[N+](C)(C)CCOC(N)=O [Carbachol] | -14.3 | 7.2 | -1.4 | -18.4 | -7.1 | -7.5 | -24.7 | -9.9 | 11.7 | -15.3 | 102 | 100 | 111 | 86.1 | 95.9 | 113 | 130 | 101 | 108 | 123
COCCOC(=O)C1=C(C)NC(C)=C(C(=O)OC(C)C)C1c1cccc([N+](=O)[O-])c1 (stereo not given) [Nimodipine] | -11.8 | 12.2 | 9.9 | 5.7 | 21.5 | -29 | -33.3 | -8.1 | 18.7 | -1.6 | 108 | 84.7 | 106 | 98.1 | 98.6 | 110 | 125 | 104 | 83.8 | 95.1
c1ccc2c(c1)CCCC2C1=NCCN1 (stereo not given) [Tetrahydrozoline hydrochloride] | -15.8 | -31.4 | -2.2 | -5 | -14.8 | -20.5 | -9.8 | -4.2 | -4.3 | -3.3 | 72 | 76.6 | 73.7 | 110 | 94.1 | 83.6 | 120 | 89.4 | 116 | 110
CNCCC=C1c2ccccc2CCc2ccccc21 [Nortriptyline hydrochloride] | -30.8 | 6.8 | 6.1 | 19 | 15.9 | -22.4 | -13.7 | -5.1 | -4.7 | 9.6 | 108 | 82.8 | 84.8 | 77.4 | 66.8 | 94.7 | 102 | 58.8 | 82.6 | 58.6
NC(=O)c1ncn([C@@H]2O[C@H](CO)[C@@H](O)[C@H]2O)n1 [Ribavirin] | -4 | -23.7 | -14.6 | 1.1 | -7.4 | -18.5 | 33.3 | -1.9 | 40.3 | -3.4 | 73.4 | 105 | 75.4 | 135 | 88 | 94.9 | 103 | 131 | 119 | 106
O=C1CC2(CCCC2)CC(=O)N1CCCCN1CCN(c2ncccn2)CC1 [Buspirone hydrochloride] | -7.3 | -5.1 | -32.7 | 3.1 | -7.1 | -24.3 | 21.3 | -29 | 4.5 | -4.8 | 76.4 | 114 | 102 | 106 | 90.1 | 129 | 107 | 71.7 | 92.6 | 112
Nc1ncn([C@@H]2O[C@H](CO)[C@@H](O)[C@H]2O)c(=O)n1 [5-azacytidine] | -1.1 | -20.2 | -2.3 | -26.5 | 13.2 | -12.1 | -38.1 | 6.8 | 39 | -3.4 | 106 | 90.8 | 134 | 118 | 104 | 96.9 | 104 | 115 | 125 | 113
Cc1cc(C(C)(C)C)c(O)c(C)c1CC1=NCCN1 [Oxymetazoline hydrochloride] | -22.3 | 10.4 | 7 | 0 | 11.2 | 4.1 | -6.4 | -3.3 | -3.1 | 21 | 110 | 113 | 106 | 81.8 | 89.8 | 95.7 | 129 | 93.2 | 122 | 112
Clc1ccc(C(c2ccccc2Cl)C(Cl)Cl)cc1 (stereo not given) [1-(2-Chlorophenyl)-1-(4-chlorophenyl)-2,2-dichloroethane] | 4 | -11.7 | -9.7 | -13 | 8.6 | -10 | 2.7 | 0.9 | 1.6 | 24.4 | 67 | 88.4 | 95.2 | 81.2 | 68.1 | 121 | 118 | 88.9 | 108 | 121
CC(CN1c2ccccc2Sc2ccccc21)N(C)C (stereo not given) [Promethazine hydrochloride] | -16.6 | 10.4 | 11.7 | 21 | 23.4 | -6.6 | 2.1 | -2.1 | -10.9 | 5.1 | 88.9 | 111 | 82.1 | 80.5 | 60 | 84.9 | 91.7 | 94.3 | 78.8 | 64.8
O=c1c(-c2ccc(O)cc2)coc2cc(O)ccc12 [Daidzein] | -0.4 | 1.7 | -19.8 | 8.5 | -15.2 | 35.1 | 10 | -26.7 | 50.3 | 29.3 | 151 | 71.1 | 96.2 | 135 | 128 | 109 | 136 | 130 | 93.9 | 126
CC(C)COCC(CN(Cc1ccccc1)c1ccccc1)N1CCCC1 (stereo not given) [Bepridil hydrochloride] | -10.3 | -3.3 | 5.1 | 1.3 | -14.7 | -32.3 | -25.4 | -1.9 | 47.5 | 14 | 99.3 | 93.7 | 97.6 | 144 | 55.5 | 110 | 90.9 | 134 | 98.9 | 93.9
CN1CCC(=C2c3ccccc3C=Cc3ccccc32)CC1 [Cyproheptadine hydrochloride] | -18.7 | -10.5 | -10.6 | -4.9 | 0.4 | -18.5 | -2 | 37.4 | 47.7 | 11.5 | 72.7 | 101 | 121 | 111 | 98.7 | 69.7 | 84.6 | 96.5 | 111 | 113
C[C@H]1C[C@H]2[C@@H]3CCC4=CC(=O)C=C[C@]4(C)[C@@]3(F)[C@@H](O)C[C@]2(C)[C@@]1(O)C(=O)CO [Betamethasone] | -15 | -22.6 | -4.1 | -22.9 | -16.9 | -9.1 | -5.8 | 1.5 | -25 | -5.7 | 66.6 | 101 | 112 | 99 | 118 | 217 | 112 | 119 | 103 | 91
NC(=O)c1cnccn1 [Pyrazinecarboxamide] | -9 | -29 | -15.7 | -15.7 | -18.9 | 18.7 | -14.6 | -4.9 | 10.7 | -3.3 | 82.2 | 97.9 | 116 | 110 | 104 | 126 | 101 | 117 | 95.2 | 101
O=C1CCc2cc(OCCCCc3nnnn3C3CCCCC3)ccc2N1 [Cilostazol] | -16.9 | -13.2 | -8.8 | -11.2 | -4.9 | -35.5 | 0.8 | -5.6 | 1.6 | -5.9 | 85.6 | 114 | 78.9 | 101 | 87.6 | 97.5 | 87 | 119 | 121 | 102
CCCN(CCC)C(=O)C(CCC(=O)O)NC(=O)c1ccccc1 (stereo not given) [Proglumide] | 0.5 | -3.2 | 15.5 | 9.5 | 11.2 | -5 | 12.5 | 7.5 | 3.9 | -4 | 104 | 117 | 99.5 | 96.1 | 103 | 97.2 | 74.4 | 121 | 89.6 | 105

Another view of some results above.
SMILES,loss of total cells (Human fetal astrocytes [1]; 1.39 µM) [%],loss of total cells (Human fetal astrocytes [1]; 2.78 µM) [%],loss of total cells (Human fetal astrocytes [1]; 5.56 µM) [%],loss of total cells (Human fetal astrocytes [1]; 11.11 µM) [%],loss of total cells (Human fetal astrocytes [1]; 22.22 µM) [%],loss of total cells (Human fetal astrocytes [2]; 1.39 µM) [%],loss of total cells (Human fetal astrocytes [2]; 2.78 µM) [%],loss of total cells (Human fetal astrocytes [2]; 5.56 µM) [%],loss of total cells (Human fetal astrocytes [2]; 11.11 µM) [%],loss of total cells (Human fetal astrocytes [2]; 22.22 µM) [%],synaptosome phagocytosis (Human fetal astrocytes [3]; 1.39 µM) [%],synaptosome phagocytosis (Human fetal astrocytes [3]; 2.78 µM) [%],synaptosome phagocytosis (Human fetal astrocytes [3]; 5.56 µM) [%],synaptosome phagocytosis (Human fetal astrocytes [3]; 11.11 µM) [%],synaptosome phagocytosis (Human fetal astrocytes [3]; 22.22 µM) [%],synaptosome phagocytosis (Human fetal astrocytes [4]; 1.39 µM) [%],synaptosome phagocytosis (Human fetal astrocytes [4]; 2.78 µM) [%],synaptosome phagocytosis (Human fetal astrocytes [4]; 5.56 µM) [%],synaptosome phagocytosis (Human fetal astrocytes [4]; 11.11 µM) [%],synaptosome phagocytosis (Human fetal astrocytes [4]; 22.22 µM) [%]
COc1cc2nc(N3CCN(C(=O)c4ccco4)CC3)nc(N)c2cc1OC [Prazosin hydrochloride],-0.3,-6.3,-1.7,9.6,-0.8,3.9,-15.3,-9.8,-11.8,27.7,98.8,98.8,60.4,106,89.4,120,92.6,119,123,112
CC[C@@H]1C(=O)OC[C@@H]1Cc1cncn1C [(+)-Pilocarpine hydrochloride],-8.1,-2.3,-3.3,3.8,11.2,-2.7,-15.3,-5.6,-8.4,19.8,109,120,99.9,110,106,88.6,74.9,122,119,77.1
C#CCN(C)CCCOc1ccc(Cl)cc1Cl [Clorgyline hydrochloride],-26.1,-5.9,9.9,11.4,26.2,3.2,3.2,19.6,1.3,6.1,98.4,128,120,112,130,93.5,94,72.5,80.4,99.4
COc1cc2nc(N3CCN(C(=O)C4COc5ccccc5O4)CC3)nc(N)c2cc1OC (stereo not given) [Doxazosin mesylate],4.6,6,4.9,-4,9.6,-35.9,7.3,-17.6,-8.4,-6.3,94,107,88.6,88.7,86.3,92.3,62.8,82.1,77.3,90.5
